According to the supplement of paper PMC6411743:
± gives the standard deviation of the averaged measurements. The list shows a part of the results.

Amino acid sequences for entries named in this document (tags omitted). A change or cut given only in a name is not applied to a line headed by its entry.
UniProt Q9Y5U2: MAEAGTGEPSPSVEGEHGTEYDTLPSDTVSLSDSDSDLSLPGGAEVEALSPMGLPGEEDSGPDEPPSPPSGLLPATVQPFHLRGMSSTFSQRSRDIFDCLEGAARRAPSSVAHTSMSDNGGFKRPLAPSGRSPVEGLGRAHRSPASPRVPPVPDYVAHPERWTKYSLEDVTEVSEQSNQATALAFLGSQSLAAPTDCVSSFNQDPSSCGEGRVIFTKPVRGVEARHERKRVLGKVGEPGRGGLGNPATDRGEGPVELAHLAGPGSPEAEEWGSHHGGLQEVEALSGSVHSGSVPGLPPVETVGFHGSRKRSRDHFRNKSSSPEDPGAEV
UniProt O43464: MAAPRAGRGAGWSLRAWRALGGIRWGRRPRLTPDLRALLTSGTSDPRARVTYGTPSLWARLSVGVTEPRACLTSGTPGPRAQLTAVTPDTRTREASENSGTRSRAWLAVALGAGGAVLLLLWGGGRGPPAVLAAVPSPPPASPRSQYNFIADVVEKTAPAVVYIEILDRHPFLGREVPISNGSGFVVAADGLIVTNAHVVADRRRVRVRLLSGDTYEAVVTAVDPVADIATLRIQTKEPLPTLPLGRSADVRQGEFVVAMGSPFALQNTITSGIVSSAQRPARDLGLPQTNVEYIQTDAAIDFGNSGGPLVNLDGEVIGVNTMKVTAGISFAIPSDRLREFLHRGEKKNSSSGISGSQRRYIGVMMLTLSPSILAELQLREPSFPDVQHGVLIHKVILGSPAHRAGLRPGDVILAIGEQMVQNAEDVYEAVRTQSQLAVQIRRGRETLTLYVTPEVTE
UniProt Q96AP0: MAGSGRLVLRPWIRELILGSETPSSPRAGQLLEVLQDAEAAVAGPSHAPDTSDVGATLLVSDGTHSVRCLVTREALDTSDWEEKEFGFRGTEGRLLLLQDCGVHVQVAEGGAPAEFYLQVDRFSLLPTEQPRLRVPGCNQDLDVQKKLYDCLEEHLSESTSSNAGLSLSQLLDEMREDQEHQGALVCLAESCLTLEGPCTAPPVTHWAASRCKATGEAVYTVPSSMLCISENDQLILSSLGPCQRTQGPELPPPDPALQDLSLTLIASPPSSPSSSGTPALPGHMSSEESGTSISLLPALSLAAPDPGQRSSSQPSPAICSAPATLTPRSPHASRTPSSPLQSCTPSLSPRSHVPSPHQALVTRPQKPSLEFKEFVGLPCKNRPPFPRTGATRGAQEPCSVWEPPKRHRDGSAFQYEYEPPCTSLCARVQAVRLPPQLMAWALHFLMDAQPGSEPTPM
UniProt Q6IAN0: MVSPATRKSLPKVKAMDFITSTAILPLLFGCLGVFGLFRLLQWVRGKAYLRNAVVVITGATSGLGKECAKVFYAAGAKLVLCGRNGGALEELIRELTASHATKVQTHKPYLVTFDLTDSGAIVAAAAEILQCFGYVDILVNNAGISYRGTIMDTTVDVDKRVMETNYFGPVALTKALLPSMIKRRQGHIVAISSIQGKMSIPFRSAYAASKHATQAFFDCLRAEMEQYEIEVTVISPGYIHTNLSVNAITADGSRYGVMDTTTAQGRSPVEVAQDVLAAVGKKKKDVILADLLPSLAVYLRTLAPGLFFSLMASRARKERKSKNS
UniProt Q9Y3T6: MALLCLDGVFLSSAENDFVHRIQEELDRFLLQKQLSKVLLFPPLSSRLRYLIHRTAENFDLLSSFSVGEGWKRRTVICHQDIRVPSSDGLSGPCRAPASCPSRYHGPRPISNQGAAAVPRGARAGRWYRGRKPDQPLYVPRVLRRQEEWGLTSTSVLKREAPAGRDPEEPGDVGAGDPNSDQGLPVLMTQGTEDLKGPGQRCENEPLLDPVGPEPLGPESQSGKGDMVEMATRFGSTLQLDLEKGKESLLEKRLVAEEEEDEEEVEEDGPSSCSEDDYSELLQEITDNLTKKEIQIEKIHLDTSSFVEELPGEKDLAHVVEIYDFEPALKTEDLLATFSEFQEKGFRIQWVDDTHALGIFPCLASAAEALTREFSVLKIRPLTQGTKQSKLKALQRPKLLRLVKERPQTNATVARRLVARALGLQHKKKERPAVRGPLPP
UniProt Q03518, whole entry: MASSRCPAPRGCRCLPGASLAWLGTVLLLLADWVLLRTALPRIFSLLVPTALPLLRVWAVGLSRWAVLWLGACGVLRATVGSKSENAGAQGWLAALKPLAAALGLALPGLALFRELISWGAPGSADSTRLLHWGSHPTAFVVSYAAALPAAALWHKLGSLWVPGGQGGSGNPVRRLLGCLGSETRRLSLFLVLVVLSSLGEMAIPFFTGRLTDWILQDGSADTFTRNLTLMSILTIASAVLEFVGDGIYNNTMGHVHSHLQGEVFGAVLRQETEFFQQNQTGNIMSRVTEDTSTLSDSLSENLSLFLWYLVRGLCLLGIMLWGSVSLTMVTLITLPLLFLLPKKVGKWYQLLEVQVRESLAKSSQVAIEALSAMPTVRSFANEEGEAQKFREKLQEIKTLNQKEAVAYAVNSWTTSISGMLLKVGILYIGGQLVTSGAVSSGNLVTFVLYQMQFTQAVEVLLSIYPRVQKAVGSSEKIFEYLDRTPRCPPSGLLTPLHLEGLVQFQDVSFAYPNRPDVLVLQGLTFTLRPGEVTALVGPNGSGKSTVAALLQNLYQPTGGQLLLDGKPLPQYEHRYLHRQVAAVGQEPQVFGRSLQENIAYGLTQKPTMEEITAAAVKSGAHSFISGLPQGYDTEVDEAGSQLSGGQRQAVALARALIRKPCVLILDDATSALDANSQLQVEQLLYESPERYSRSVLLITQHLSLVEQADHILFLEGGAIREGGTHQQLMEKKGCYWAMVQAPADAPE
UniProt A2RU67: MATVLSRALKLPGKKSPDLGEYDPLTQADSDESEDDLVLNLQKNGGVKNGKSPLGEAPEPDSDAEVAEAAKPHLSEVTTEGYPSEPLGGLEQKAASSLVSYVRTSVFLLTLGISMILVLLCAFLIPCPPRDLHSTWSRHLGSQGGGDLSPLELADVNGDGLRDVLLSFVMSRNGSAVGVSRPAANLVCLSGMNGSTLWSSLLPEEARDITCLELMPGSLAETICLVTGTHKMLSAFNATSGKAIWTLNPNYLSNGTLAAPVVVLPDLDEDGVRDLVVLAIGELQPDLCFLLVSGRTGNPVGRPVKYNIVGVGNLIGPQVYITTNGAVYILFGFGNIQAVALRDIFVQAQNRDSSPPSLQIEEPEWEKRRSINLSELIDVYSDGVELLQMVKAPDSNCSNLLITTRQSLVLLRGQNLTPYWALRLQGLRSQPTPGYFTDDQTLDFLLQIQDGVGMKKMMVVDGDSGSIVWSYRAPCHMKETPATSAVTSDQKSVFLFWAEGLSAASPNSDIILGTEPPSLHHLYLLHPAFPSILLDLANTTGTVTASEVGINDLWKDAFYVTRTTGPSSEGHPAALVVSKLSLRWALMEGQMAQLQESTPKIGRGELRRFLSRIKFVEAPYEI
UniProt Q12979: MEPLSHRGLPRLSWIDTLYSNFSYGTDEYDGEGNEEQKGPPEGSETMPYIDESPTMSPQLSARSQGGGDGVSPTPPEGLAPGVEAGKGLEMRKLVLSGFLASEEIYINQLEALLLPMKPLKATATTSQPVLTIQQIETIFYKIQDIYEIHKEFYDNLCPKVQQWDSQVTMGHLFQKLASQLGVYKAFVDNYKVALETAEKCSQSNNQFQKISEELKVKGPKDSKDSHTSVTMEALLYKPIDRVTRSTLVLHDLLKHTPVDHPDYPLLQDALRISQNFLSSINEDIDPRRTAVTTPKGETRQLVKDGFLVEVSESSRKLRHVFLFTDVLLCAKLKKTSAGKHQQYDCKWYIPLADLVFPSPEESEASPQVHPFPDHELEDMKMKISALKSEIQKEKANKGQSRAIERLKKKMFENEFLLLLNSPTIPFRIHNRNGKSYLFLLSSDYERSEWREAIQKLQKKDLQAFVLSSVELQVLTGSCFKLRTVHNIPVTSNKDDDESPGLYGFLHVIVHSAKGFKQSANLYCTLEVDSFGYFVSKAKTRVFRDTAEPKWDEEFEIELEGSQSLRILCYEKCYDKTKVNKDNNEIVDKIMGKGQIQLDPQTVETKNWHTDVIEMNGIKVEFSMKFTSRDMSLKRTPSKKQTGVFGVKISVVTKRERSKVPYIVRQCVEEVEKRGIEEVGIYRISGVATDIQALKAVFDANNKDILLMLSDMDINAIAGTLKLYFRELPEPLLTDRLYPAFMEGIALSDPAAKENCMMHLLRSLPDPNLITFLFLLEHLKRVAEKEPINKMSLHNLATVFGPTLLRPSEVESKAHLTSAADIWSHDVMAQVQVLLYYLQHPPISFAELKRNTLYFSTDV
UniProt O94973, whole entry: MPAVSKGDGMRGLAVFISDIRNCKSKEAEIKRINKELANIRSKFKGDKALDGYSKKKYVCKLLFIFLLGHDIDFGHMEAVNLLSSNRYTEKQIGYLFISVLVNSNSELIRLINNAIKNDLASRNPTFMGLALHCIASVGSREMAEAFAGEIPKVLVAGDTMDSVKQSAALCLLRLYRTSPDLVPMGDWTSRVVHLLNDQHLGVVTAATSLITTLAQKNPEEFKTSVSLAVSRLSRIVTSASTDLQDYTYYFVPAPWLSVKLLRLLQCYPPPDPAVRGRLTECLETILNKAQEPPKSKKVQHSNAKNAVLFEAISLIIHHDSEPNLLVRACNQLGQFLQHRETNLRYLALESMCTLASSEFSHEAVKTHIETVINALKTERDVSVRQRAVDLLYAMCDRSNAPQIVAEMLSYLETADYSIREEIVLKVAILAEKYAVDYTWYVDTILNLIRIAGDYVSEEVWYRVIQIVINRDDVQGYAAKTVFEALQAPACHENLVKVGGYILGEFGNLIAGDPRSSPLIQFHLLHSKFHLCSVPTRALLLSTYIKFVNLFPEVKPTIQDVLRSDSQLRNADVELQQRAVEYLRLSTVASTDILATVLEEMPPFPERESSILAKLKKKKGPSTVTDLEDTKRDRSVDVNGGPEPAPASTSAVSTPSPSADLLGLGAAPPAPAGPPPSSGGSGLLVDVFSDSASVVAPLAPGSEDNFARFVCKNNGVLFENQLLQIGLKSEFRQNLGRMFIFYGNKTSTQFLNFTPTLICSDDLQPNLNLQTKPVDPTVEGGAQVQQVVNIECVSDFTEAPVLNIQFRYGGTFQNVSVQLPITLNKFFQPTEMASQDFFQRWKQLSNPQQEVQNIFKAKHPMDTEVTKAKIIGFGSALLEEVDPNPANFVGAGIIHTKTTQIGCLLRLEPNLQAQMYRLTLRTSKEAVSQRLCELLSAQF
UniProt A1L0T0: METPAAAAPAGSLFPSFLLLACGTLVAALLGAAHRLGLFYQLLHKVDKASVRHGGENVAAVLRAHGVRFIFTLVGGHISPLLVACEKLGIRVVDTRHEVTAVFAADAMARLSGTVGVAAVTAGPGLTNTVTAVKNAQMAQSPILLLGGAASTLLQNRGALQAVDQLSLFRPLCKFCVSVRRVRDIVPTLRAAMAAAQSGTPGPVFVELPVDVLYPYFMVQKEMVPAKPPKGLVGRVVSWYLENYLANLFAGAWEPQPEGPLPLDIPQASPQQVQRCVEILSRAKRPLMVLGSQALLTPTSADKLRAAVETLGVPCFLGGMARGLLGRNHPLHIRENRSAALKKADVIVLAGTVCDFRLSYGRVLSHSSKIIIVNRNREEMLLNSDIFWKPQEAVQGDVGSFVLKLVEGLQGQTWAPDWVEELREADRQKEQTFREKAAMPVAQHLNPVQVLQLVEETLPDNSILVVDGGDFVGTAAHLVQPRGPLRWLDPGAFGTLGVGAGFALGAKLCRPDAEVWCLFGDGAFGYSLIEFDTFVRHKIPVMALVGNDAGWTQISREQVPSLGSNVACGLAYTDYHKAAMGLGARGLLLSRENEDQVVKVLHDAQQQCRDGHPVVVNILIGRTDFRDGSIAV
UniProt P54252: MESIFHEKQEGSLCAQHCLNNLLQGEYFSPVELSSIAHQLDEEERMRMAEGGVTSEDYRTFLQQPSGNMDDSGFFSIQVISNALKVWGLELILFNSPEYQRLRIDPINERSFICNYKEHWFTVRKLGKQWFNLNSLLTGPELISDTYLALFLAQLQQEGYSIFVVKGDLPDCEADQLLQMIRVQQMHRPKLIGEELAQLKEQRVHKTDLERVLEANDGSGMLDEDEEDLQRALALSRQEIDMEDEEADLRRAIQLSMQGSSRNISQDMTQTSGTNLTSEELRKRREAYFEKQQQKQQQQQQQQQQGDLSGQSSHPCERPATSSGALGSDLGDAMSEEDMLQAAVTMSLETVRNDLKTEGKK

Compound: Nc1nc2c(ncn2[C@@H]2O[C@H](COP(=O)(O)OP(=O)(O)OP(=O)(O)O)[C@@H](O)[C@H]2O)c(=O)[nH]1 [guanosine triphosphate]
Assay: NP40-soluble protein abundance relative to vehicle (solubility fold change) (ratio); higher = more soluble protein in presence of GTP
Method in brief: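 Each value is a fold change relative to the detergent-processed vehicle, calculated per replicate from vsn-normalised intensities. Jurkat crude lysate received eight concentrations (0.1 to 10 mM) for 10 min at room temperature and 3 min at 37 °C, then was solubilised in 0.8% NP40 with benzonase (60 min, 4 °C). The ultracentrifuged supernatant was TMT-labelled and run by LC-MS/MS in three independent experiments.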

Target	NP40-soluble protein abundance (concentration: 0.1mM)	NP40-soluble protein abundance (concentration: 0.5mM)	NP40-soluble protein abundance (concentration: 1mM)	NP40-soluble protein abundance (concentration: 2mM)	NP40-soluble protein abundance (concentration: 4mM)	NP40-soluble protein abundance (concentration: 6mM)	NP40-soluble protein abundance (concentration: 8mM)	NP40-soluble protein abundance (concentration: 10mM)
A6NCC9 and related entries (UniProt Q9Y5U2)	0.984 ± 0.024	0.978 ± 0.14	1.19 ± 0.12	1.13 ± 0.034	1.15 ± 0.041	1.14 ± 0.028	1.22 ± 0.13	1.22 ± 0.11
A0A0C4DG44|O43464 and related entries (UniProt O43464)	1.02 ± 0.014	1.02 ± 0.028	1.04 ± 0.019	1.03 ± 0.017	1.02 ± 0.091	1 ± 0.058	0.991 ± 0.014	0.992 ± 0.024
A0A0C4DGT6|Q96AP0 and related entries (UniProt Q96AP0)	1.17 ± 0.1	1.23 ± 0.065	1.11 ± 0.057	1.25 ± 0.12	1.22 ± 0.072	1.32 ± 0.13	1.26 ± 0.11	1.23 ± 0.065
A0A0C4DGQ8|Q6IAN0 (UniProt Q6IAN0)	0.947 ± 0.14	0.967 ± 0.094	0.853 ± 0.13	0.925 ± 0.031	0.89 ± 0.032	0.913 ± 0.048	0.914 ± 0.077	0.943 ± 0.071
A0A0R4J2E2|Q9Y3T6 and related entries (UniProt Q9Y3T6)	0.88 ± 0.0067	0.877 ± 0.017	0.961 ± 0.019	0.923 ± 0.048	0.94794 ± 0.00022	0.908 ± 0.017	0.89 ± 0.034	0.9192 ± 0.0019
A0A140T9T7|Q03518 (UniProt Q03518)	1.03 ± 0.032	1.032 ± 0.0097	1.01 ± 0.05	1.02 ± 0.035	1.07 ± 0.062	1.06 ± 0.063	1.08 ± 0.03	1.05 ± 0.088
UniProt A2RU67	0.932 ± 0.039	0.838 ± 0.034	0.926 ± 0.079	0.787 ± 0.2	0.823 ± 0.043	0.772 ± 0.083	0.9553 ± 0.0041	0.816 ± 0.2
A0A0G2JQ41|Q12979 and related entries (UniProt Q12979)	1.03 ± 0.059	1.05 ± 0.071	0.969 ± 0.03	1.01 ± 0.064	0.973 ± 0.066	0.955 ± 0.066	0.938 ± 0.025	0.9 ± 0.052
A0A0G2JS82|O94973 (UniProt O94973)	1.07 ± 0.024	1.077 ± 0.008	1.07 ± 0.022	1.08 ± 0.024	1.06 ± 0.013	1.05 ± 0.011	1.044 ± 0.0099	1.055 ± 0.0092
UniProt A1L0T0 and related entries	1.05 ± 0.022	1.04 ± 0.014	0.949 ± 0.036	0.986 ± 0.043	0.943 ± 0.04	0.924 ± 0.065	0.927 ± 0.025	0.915 ± 0.049
A0A0B4J220 (UniProt E9PRG8)	1.02 ± 0.041	0.975 ± 0.021	1.05 ± 0.045	1.16 ± 0.013	1.36 ± 0.019	1.35 ± 0.021	1.15 ± 0.092	1.63 ± 0.13
A0A087X1A8|D3VVH9 and related entries (UniProt P54252)	0.899 ± 0.03	0.869 ± 0.091	0.948 ± 0.069	0.898 ± 0.13	0.859 ± 0.076	0.885 ± 0.12	0.862 ± 0.087	0.896 ± 0.077
